Publication PMC4119924
No constants are given. Whether binding was seen depends on the method and setting. Binding seen in cells or lysates may run through a third protein. Binding can be weak; no strength is given.

The chains behind the UniProt entries cited, without tags or fusion partners. Where a name states a change or a piece, a line headed by the entry shows the natural chain unless it says otherwise.
UniProt Q9BST9: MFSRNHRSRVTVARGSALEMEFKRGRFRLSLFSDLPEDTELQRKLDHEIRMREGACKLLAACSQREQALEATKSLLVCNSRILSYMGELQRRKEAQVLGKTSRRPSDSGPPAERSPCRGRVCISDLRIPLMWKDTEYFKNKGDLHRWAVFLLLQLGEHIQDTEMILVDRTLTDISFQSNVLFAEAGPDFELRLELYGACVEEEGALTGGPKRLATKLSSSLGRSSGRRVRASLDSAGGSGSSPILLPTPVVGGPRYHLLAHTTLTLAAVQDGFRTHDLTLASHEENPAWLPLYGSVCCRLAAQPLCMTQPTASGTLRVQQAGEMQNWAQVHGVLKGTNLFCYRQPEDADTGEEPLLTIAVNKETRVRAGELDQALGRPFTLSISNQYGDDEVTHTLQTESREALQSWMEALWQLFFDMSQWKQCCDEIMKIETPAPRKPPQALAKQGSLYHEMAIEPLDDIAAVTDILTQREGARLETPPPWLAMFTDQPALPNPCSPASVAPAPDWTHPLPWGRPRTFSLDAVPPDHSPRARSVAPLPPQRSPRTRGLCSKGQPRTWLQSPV
UniProt P61589: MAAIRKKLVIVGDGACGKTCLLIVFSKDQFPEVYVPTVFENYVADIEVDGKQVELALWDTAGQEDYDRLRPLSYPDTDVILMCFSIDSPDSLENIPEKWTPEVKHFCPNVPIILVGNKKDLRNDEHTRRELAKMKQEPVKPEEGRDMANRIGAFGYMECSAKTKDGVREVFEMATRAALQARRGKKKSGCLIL

Target: GST-fused Rho-binding domain of Rhotekin (UniProt Q9BST9)
Assay: pull-down; GST-rhotekin Rho-binding domain on glutathione-Sepharose beads incubated 1 h with VSMC lysates; bound proteins immunoblotted with anti-RhoA; cells treated beforehand with ADMA (0-30 uM, 30 min), SDMA, L-arginine, Y27632 or DDAH2 overexpression; only the target purified

- binding: binds
Substance: RhoA (from UniProt P61589 1-193)
